In patent US11970496B1, “Pyrrolo[3,2-c]quinoline compounds as CK2 inhibitors” (KING FAISAL UNIVERSITY, priority 2023, dated 2024):

Columns and labels:
Type in all cases: cell-based
MDA-MB-231 (breast) = experiment: In vitro cytotoxic activity assay (MTT), MDA-MB-231; details: Homo sapiens; MDA-MB-231 cells, exposed for 96 hours; read-out: IC50, 50% inhibition of cell proliferation, MDA-MB-231 (breast)
Description: (§1) Compounds 1-12 were screened for their in vitro cytotoxic activity utilizing a 3-(4,5-dimethyl-thiazol-2-yl)-2,5-diphenyltetrazolium bromide (MTT) assay against selected cancer human cell lines consisting of PC3 (prostate), HCT116 (colon), A375 (melanoma), H1299 (lung), MIAPaCa-2 (pancreas), HL60 (leukemia), MCF7 (breast), MDA-MB-231 (breast) (T. Mosmann, J. Immunol. Meth., 1983, 65, 55-63). The cells were cultured at 37° C. in RMPI1640 medium supplemented with 10% fetal bovine serum, 50 IU/mL penicillin, and 50 μg/mL streptomycin in a 5% CO2 incubator. All cells were sub-cultured 3 times/week by trypsinisation. Viable cells were seeded and allowed to adhere for 12 h before a test drug was added in 96-well plates at an initial density of 1.0×10^5 cells/mL. Tumour cell lines were separately exposed to various concentrations of the tested compounds followed by incubation at a temperature of 37° C. during 96 h inside a medium of fresh RMPI 1640. Cells were subsequently incubated at 37° C. using MTT at 0.5 mg/mL during 4 h. After removal of supernatant, formazan crystals were dissolved in isopropanol and the optical density was measured at 570 nm. CX-4945 was used as a positive control.

H1299 (lung) = experiment: In vitro cytotoxic activity assay (MTT), H1299; details: Homo sapiens, NCI-H1299; H1299 cells, exposed for 96 hours; read-out: IC50, 50% inhibition of cell proliferation, H1299 (lung)
Description: as §1

HL60 (leukemia) = experiment: In vitro cytotoxic activity assay (MTT), HL60; details: Homo sapiens, HL-60; HL60 cells, exposed for 96 hours; read-out: IC50, 50% inhibition of cell proliferation, HL60 (leukemia)
Description: as §1

A375 (melanoma) = experiment: In vitro cytotoxic activity assay (MTT), A375; details: Homo sapiens, A-375; A375 cells, exposed for 96 hours; read-out: IC50, 50% inhibition of cell proliferation, A375 (melanoma)
Description: as §1

MIAPaCa-2 (pancreas) = experiment: In vitro cytotoxic activity assay (MTT), MIAPaCa-2; details: Homo sapiens, MIA PaCa-2; MIAPaCa-2 cells, exposed for 96 hours; read-out: IC50, 50% inhibition of cell proliferation, MIAPaCa-2 (pancreas)
Description: as §1

MCF7 (breast) = experiment: In vitro cytotoxic activity assay (MTT), MCF7; details: Homo sapiens; MCF7 cells, exposed for 96 hours; read-out: IC50, 50% inhibition of cell proliferation, MCF7 (breast)
Description: as §1

PC3 (prostate) = experiment: In vitro cytotoxic activity assay (MTT), PC3; details: Homo sapiens, PC-3; PC3 cells, exposed for 96 hours; read-out: IC50, 50% inhibition of cell proliferation, PC3 (prostate)
Description: as §1

HCT116 (colon) = experiment: In vitro cytotoxic activity assay (MTT), HCT116; details: Homo sapiens, HCT-116; HCT116 cells, exposed for 96 hours; read-out: IC50, 50% inhibition of cell proliferation, HCT116 (colon)
Description: as §1

O=C(O)c1ccc2c(c1)nc(Nc1cccc(Cl)c1)c1ccncc12 [CX-4945, reference compound]
IC50 (MDA-MB-231 (breast)): 6200 nM | IC50 (H1299 (lung)): 2300 nM | IC50 (HL60 (leukemia)): 3700 nM | IC50 (A375 (melanoma)): 4100 nM | IC50 (MIAPaCa-2 (pancreas)): 1000 nM | IC50 (MCF7 (breast)): 9100 nM | IC50 (PC3 (prostate)): 2000 nM | IC50 (HCT116 (colon)): 2300 nM
